± gives the uncertainty stated by the source. Many of these values have a large error.
Test: self-splicing fitness, log relative to wild type (ln ratio); higher = more splicing; Tetrahymena group I intron in knt gene, E. coli kanamycin selection, DiMSum; sequences stand for … in CUCUCU…GGAGGGAAAAGUUAUCAGGCAUGCACCUGGUAGCUAGUCUUUAAACCAAUAGAUUGCAUCGGUUUAAAAGGCAAGACCGUCAAAUUGCGGGAAAGGGGUCAACAGCCGUUCAGUACCAAGUCUCAGGGGAAACUUUGAGAUGGCCUUGCAAAGGGUAUGGUAAUAAGCUGACGGACAUGGUCCUAACCACGCAGCCAAGUCCUAAGUCAACAGAUCUUCUGUUGAUAUGGAUGCAGUUCACAGACUAAAUGUCGGUCGGGGAAGAUGUAUUCUUCUCAUAAGAUAUAGUCGGACCUCUCCUUAAUGGGAGCUAGCGGAUGAAGUGAUGCAACACUGGAGCCGCUGGGAACUAAUUUGUAUGCGAAAGUAUAUUGAUUAGUUUUGGAGUACUCGUGGUCG
Summary of the method: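 DiMSum derived fitness as the error-weighted combination of fold changes across replicates, kanamycin versus no kanamycin, normalised to wild type. E. coli BL21(DE3) held the library, which randomised all eight P1ex-region intron nucleotides within the knt kanamycin-resistance gene on pET-22b(+). Six replicate transformations grew overnight at 37°C or 30°C on LB agar with or without 25 μg/mL kanamycin, also containing 100 μg/mL carbenicillin, 50 μM IPTG and 0.2% rhamnose, and pooled colonies were amplicon-sequenced on an Illumina HiSeq 2500.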

Sequence | self-splicing fitness (ln) (30 °C) | self-splicing fitness (ln) (37 °C)
AUUAAGCAAUAUUACGAACG | -1.59 ± 0.18 | -0.243 ± 0.15
GCGAAGCAAUAUUACGCCCC | – | -0.881 ± 0.61
CCGAAGCAAUAUUACGAGGA | -4.32 ± 0.39 | -2.54 ± 0.21
CAGUAGCAAUAUUACGAGCU | -3.07 ± 0.28 | 0.322 ± 0.19
GGUUAGCAAUAUUACGAAAG | -2.34 ± 0.78 | -1.25 ± 0.53
CGGCAGCAAUAUUACGCAAC | -4.42 ± 0.59 | –
CUAGAGCAAUAUUACGCCAC | -3.97 ± 1 | –
UAUGAGCAAUAUUACGGAAA | – | -2.78 ± 0.54
GUUUAGCAAUAUUACGAGAU | -0.826 ± 0.78 | -2.23 ± 1.1
UCGGAGCAAUAUUACGAUCU | -1.99 ± 0.51 | -1.6 ± 0.53
CAACAGCAAUAUUACGAUGG | -0.426 ± 0.056 | 0.257 ± 0.075
GCGGAGCAAUAUUACGUCAA | – | -2.79 ± 0.77
CCUUAGCAAUAUUACGCAUU | – | -2.13 ± 0.56
GAAUAGCAAUAUUACGGGGC | – | -3.83 ± 0.52
GAGGAGCAAUAUUACGCAUA | – | 1.5 ± 1.1
GGUGAGCAAUAUUACGCGAG | -4.28 ± 0.6 | –
GGUCAGCAAUAUUACGGAGG | -4.27 ± 0.51 | –
CAUAAGCAAUAUUACGAAGC | – | -1.39 ± 0.87
CAGGAGCAAUAUUACGGUUU | – | -4.6 ± 0.72
CUGGAGCAAUAUUACGGAGA | -3.11 ± 0.42 | -1.91 ± 0.63
UGUGAGCAAUAUUACGAAGU | – | -1.69 ± 0.82

Taken from above for reference:
Sequence | self-splicing fitness (ln) (30 °C) | self-splicing fitness (ln) (37 °C)
GGUUAGCAAUAUUACGAAAG | -2.34 ± 0.78 | -1.25 ± 0.53
CGGCAGCAAUAUUACGCAAC | -4.42 ± 0.59 | –
CUAGAGCAAUAUUACGCCAC | -3.97 ± 1 | –
UAUGAGCAAUAUUACGGAAA | – | -2.78 ± 0.54
GUUUAGCAAUAUUACGAGAU | -0.826 ± 0.78 | -2.23 ± 1.1
UCGGAGCAAUAUUACGAUCU | -1.99 ± 0.51 | -1.6 ± 0.53
CAACAGCAAUAUUACGAUGG | -0.426 ± 0.056 | 0.257 ± 0.075
GCGGAGCAAUAUUACGUCAA | – | -2.79 ± 0.77
CCUUAGCAAUAUUACGCAUU | – | -2.13 ± 0.56
GAAUAGCAAUAUUACGGGGC | – | -3.83 ± 0.52
GAGGAGCAAUAUUACGCAUA | – | 1.5 ± 1.1

The results go on.

Sequence | self-splicing fitness (ln) (30 °C) | self-splicing fitness (ln) (37 °C)
UGUUAGCAAUAUUACGAUCC | – | -1.42 ± 0.62
GGAGAGCAAUAUUACGUACG | – | -2.26 ± 0.55
CAGAAGCAAUAUUACGUAGU | -4.18 ± 0.24 | -1.97 ± 0.17
ACAGAGCAAUAUUACGUCGC | -2.98 ± 0.31 | -3.02 ± 0.31
CUGAAGCAAUAUUACGUUUC | – | -2.29 ± 0.53
ACAGAGCAAUAUUACGAGAC | -3.23 ± 0.37 | -2.67 ± 0.31
UUCGAGCAAUAUUACGUUAC | – | -2.18 ± 1.1
AUGGAGCAAUAUUACGGGCA | – | -2.19 ± 0.65
CCAUAGCAAUAUUACGAACC | – | -1.16 ± 0.55
CUAGAGCAAUAUUACGGACC | -2.46 ± 0.84 | –
CUUAAGCAAUAUUACGUUGA | -2.93 ± 0.63 | –
GCGUAGCAAUAUUACGUAAU | -2.81 ± 0.54 | –
GUCGAGCAAUAUUACGACCG | – | -0.902 ± 0.84
AUAUAGCAAUAUUACGCGGC | -3.07 ± 0.61 | -1.64 ± 0.6
GUCAAGCAAUAUUACGCGAC | – | -3.16 ± 1
CAGUAGCAAUAUUACGUAUA | -1.62 ± 0.54 | –
CGAGAGCAAUAUUACGUGGU | -4.72 ± 0.71 | –
GAAGAGCAAUAUUACGCCAG | -3.42 ± 0.55 | -0.627 ± 0.38
CUUAAGCAAUAUUACGGCCC | – | -2.18 ± 1.1
CAAGAGCAAUAUUACGCCAC | – | -2.08 ± 1.1
GAAAAGCAAUAUUACGCGGA | -2.25 ± 0.14 | -0.603 ± 0.13

Sequence | self-splicing fitness (ln) (30 °C) | self-splicing fitness (ln) (37 °C)
UUUGAGCAAUAUUACGAGUU | -2.86 ± 0.51 | –
GUCGAGCAAUAUUACGCCUG | -3.21 ± 1.1 | 0.207 ± 0.9
CCCAAGCAAUAUUACGCAUC | -4.93 ± 0.71 | –
CUUAAGCAAUAUUACGACCC | -2.36 ± 1.2 | -1.13 ± 1.2
GUUUAGCAAUAUUACGCGCU | -1.52 ± 0.29 | -0.397 ± 0.44
AGAAAGCAAUAUUACGGACU | -0.691 ± 0.079 | 0.112 ± 0.089
CUAGAGCAAUAUUACGGGCU | -3.54 ± 0.76 | -2.84 ± 0.74
CGUAAGCAAUAUUACGCUGC | -4.84 ± 0.72 | –
AUUGAGCAAUAUUACGGAAC | – | -3.9 ± 0.59
AUCGAGCAAUAUUACGAGAA | -1.59 ± 0.57 | –
GUCAAGCAAUAUUACGGUCU | -2.7 ± 0.084 | -0.906 ± 0.075
CCUAAGCAAUAUUACGCUAA | -4.22 ± 0.52 | –
UCUUAGCAAUAUUACGUGUC | -3.39 ± 1 | -3 ± 0.53
UUGCAGCAAUAUUACGAGCC | -3.83 ± 0.53 | –
GGUUAGCAAUAUUACGCUGC | – | -2.63 ± 1.1
UUCUAGCAAUAUUACGGCAC | -1.32 ± 1.4 | –
UAAUAGCAAUAUUACGCCGC | -3.34 ± 1 | -1.02 ± 0.53
CAUGAGCAAUAUUACGAACC | – | -0.902 ± 0.52
UUGUAGCAAUAUUACGCUAC | -3.9 ± 1 | -2.01 ± 0.5
GAGCAGCAAUAUUACGCCCC | – | -1 ± 0.92

— the supplement of paper PMC7877785
